Laboratory results reported in PMC7070731, “Cytotoxic Activity of Organotin(IV) Derivatives with Triazolopyrimidine Containing Exocyclic Oxygen Atoms” (Molecules, 2020).

How the values were obtained:
[1] = test system: intestinal normal-like differentiated Caco-2 cells; test: MTT viability assay, normal-like differentiated Caco-2 cells; format: cell-based, human; conditions: for Selectivity index towards the tumor cells (SI): summary statement over both normal cell types versus HCT-116; for SI (selectivity index): LC50 of normal differentiated Caco2 cells divided by IC50 of HCT-116 tumor cells
Protocol: (§1) HTC116 (human colorectal carcinoma), HepG2 (human hepatocellular carcinoma), MCF-7 (human breast cancer), 16-HBE (human bronchial epithelium) and Caco-2 (human colorectal carcinoma) cell lines were purchased from American Type Culture Collection, Rockville, MD, USA. All cell lines were grown in RPMI medium supplemented with L-glutamine (2 mM), 10% fetal bovine serum (FBS), penicillin (100 U/mL), streptomycin (100 µg/mL) and gentamicin (5 μg/mL). Cells were maintained in log phase by seeding twice a week at a density of 3 × 10^8 cells/L in humidified 5% CO2 atmosphere, at 37 °C. In all experiments, after plating, cells were allowed to adhere overnight and then treated with the compounds or vehicle alone (control cells), whereas Caco-2 cells were treated 15 days after confluence, at which time the cells are differentiated in normal intestinal-like cells. No differences were found between cells treated with DMSO 0.1% and untreated cells in terms of cell number and viability.
(§2) Cytotoxic activity of the organotin compounds against human tumor cell lines (HCT-116, HepG2 and MCF-7) and human normal cells (16-HBE and intestinal-like differentiated Caco2 cells) was determined using the MTT colorimetric assay based on the reduction of 3-(4,5-dimethyl-2-thiazolyl)bromide-2,5-diphenyl-2H-tetrazolium (MTT) to purple formazan using mitochondrial dehydrogenases of living cells, as reported. This method is commonly used to illustrate inhibition of cellular proliferation. […] Cisplatin was used for comparison. Briefly, all cell lines were seeded at 1.0 × 10^4 cells/well in 96-well plates containing 200 μL RPMI. When appropriated, cells were washed with fresh medium and incubated with the compounds in RPMI. After incubation, cells were washed, and 50 μL FBS-free medium containing 5 mg/mL MTT was added. The medium was discarded after a 2 h incubation at 37 °C by centrifugation, and formazan blue formed in the cells was dissolved in DMSO. The absorbance, measured at 570 nm in a microplate reader (Bio-RAD, Hercules, CA, USA) of MTT formazan of control cells was taken as 100% of viability. The growth inhibition activity of compounds was estimated by comparison with the not-treated control. The values for the inhibitory concentration for 50% of the tested compounds (IC50) were calculated using a sigmoidal model using GraphPad Prism 5.02 from GraphPad Software (San Diego, CA, USA). Each experiment was repeated three times in triplicate to obtain the mean values.
Formazan of control cells was taken as 100% viability and the 50% lethal concentrations of the synthesized complexes (LC50) were determined by plotting the graph of cell viability versus the concentrations. The selectivity index (SI) values were calculated for each compound by dividing the LC50 of normal differentiated Caco2 or 16-HBE cells by the IC50 of HCT-116 tumor cells. Each experiment was repeated three times in triplicate.

[2] = test system: human bronchial epithelial cells (16-HBE); test: MTT viability assay, 16-HBE cells; format: cell-based; conditions: LC50 of 16-HBE cells divided by IC50 of HCT-116 tumor cells
Protocol: as §1, §2
Formazan of control cells was taken as 100% viability and the 50% lethal concentrations of the synthesized complexes (LC50) were determined by plotting the graph of cell viability versus the concentrations. […]

| Molecule | Selectivity index towards the tumor cells (SI) [1] | SI (selectivity index) [2] | SI (selectivity index) [1] |
| --- | --- | --- | --- |
| CCC[CH2][Sn]([CH2]CCC)([CH2]CCC)[O]c1ccn2ncnc2n1 [Compound 2, n-Bu3Sn(5tpO)] | > 90 | 240 | – |
| CCC[CH2][Sn]([CH2]CCC)([CH2]CCC)[O]c1cc(C)nc2ncnn12 [Compound 4, n-Bu3Sn(mtpO)] | > 90 | 323 | – |
| Ph3Sn(HtpO2) [Compound 6] | > 90 | >1000 | >1000 |
| n-Bu3Sn(HtpO2) [Compound 5] | > 90 | 217 | 116 |
